Entries after “also recorded” stand apart in the source; their conditions may differ. Part of at least one peptide drawing is inferred or uncertain, most often the ends. No end group written: not given here.
Experiments:
[1] = tested on: hypoparathyroid/hypothyroid rats; conditions: chronic treatment 28 days; cited from earlier work
TPTX rats [2] = test: BMD (DXA) and bone structure (micro-CT) in TPTX rats after repeated daily dosing (Example 7); format: in vivo, rat
Method: To examine the effect of repeated dosing with AZP-3601, TPTX rats were treated with daily subcutaneous injections of either vehicle or AZP-3601 with doses ranging from 3.8 to 30.7 μg/kg/day (0.9-7.2 nmole/kg/day). As additional controls, a separate group of TPTX rats received daily injections of natural PTH (1-84), and a group of normal (with intact thyroid and parathyroid glands, or sham) rats were injected with vehicle. […] Both whole femurs and lumbar spine were analyzed using a technique called dual-energy x-ray absorptionametry, or DXA, which measures BMD.

TPTX rats [3] = test: Serum calcium and phosphate, 28-day daily sc dosing in HP TPTX rat model (Example 2); format: in vivo
Method: Thyroid-parathyroidectomized, or TPTX, rats were treated with daily subcutaneous injection of AZP-3601 at doses ranging from 3.8 μg/kg/day to 30.7 μg/kg/day. Treatment was continued for 28 days. […] The increase in calcium accumulated over time (over the first 15 to 21 days), but became more constant thereafter, indicating the development of a steady-state effect (FIG. 2). Due to the cumulative effect, lower doses of AZP-3601 were required to eventually increase blood calcium levels into the normal range as compared to the dose required with a single injection.

hypoparathyroid mice = conditions: single sc, AZP-3601 10 to 20 nmol/kg, PTH(1-34) at a higher dose; cited from earlier work
[4] = tested on: subjects with hypoparathyroidism (HP); test: Open-label multiple ascending dose study plus 2-month extension in subjects with hypoparathyroidism (Examples 10, 11); format: in vivo, human
Excerpt: Part C: Part C of the assessment was an open-label multiple ascending dose (MAD) study in male or female subjects with hypoparathyroidism (HP) who are on standard or care treatment (treatment with oral calcium and active vitamin D) to evaluate the safety and tolerability, PK, and PD of AZP-3601. Up to 2 cohorts of approximately 12 patients each were planned for this part of the study. Prior to the treatment period, there was an optimization period of up to 8 weeks during which doses of oral calcium and active vitamin D were adjusted to achieve a baseline target range of albumin-corrected serum calcium (7.8 to 9.0 mg/dL, ie, 1.95 to 2.25 mmol/L) and therefore ensuring a close baseline for all patients. During this optimization period, any serum 25-hydroxy vitamin D (native vitamin D) and/or magnesium deficiencies were corrected. During the treatment period, patients in Part C received AZP-3601 for 28 days as daily sc abdominal injections (with rotation of injection sites every dosing day). Doses of oral calcium and active vitamin D supplements were reduced during the initial 14 days of treatment while maintaining albumin-corrected serum calcium in the target range (7.8 to 9.0 mg/dL, ie, 1.95 to 2.25 mmol/L). Reductions of both oral calcium and active vitamin D supplements were performed using a staged approach until the active vitamin D dose were eliminated and the oral calcium dose were reduced to or below 500 mg/day. Based on animal data, serum calcium was expected to increase progressively following repeated administration of AZP-3601 and PD steady state was expected to be observed within the first 5 days of dosing. Staggered reductions of doses of oral calcium and active vitamin D supplements were therefore performed at near-steady state based on the predose albumin-corrected serum calcium value. The following treatments are administered in Part C in an open-label fashion: • Cohort C1: multiple sc doses of 20 mg AZP-3601 (n=12) qd from Day 1 to Day 28 (dose increase of AZP-3601 to 40 mg was allowed from Day 14 onwards) • Cohort C2: multiple sc doses of a fixed dose of 10 mg AZP-3601 (n=12) qd from Day 1 to Day 28 (dose of AZP-3601 may be increased at a fixed dose of 20 mg from Day 14 onwards)
During the extension phase, patients had their AZP-3601 dose increased in increments of 10 mg to a maximum dose of 60 mg (Cohort 1) and of 80 mg (Cohort 2).
The extension phase started immediately following Day 28 visit of the Main treatment period. Patients received AZP-3601 for 56 days (2 months) as daily sc injections from Day 29 onwards (with rotation of injection sites each day of administration). The goal was to optimize AZP-3601 dosing across a dose range while doses of oral calcium and active vitamin D were as low as safely possible and albumin-corrected serum calcium was maintained within the target range of 7.8 to 9.0 mg/dL (1.95 to 2.25 mmol/L). For patients who were taking minimal or no supplemental calcium (≤500 mg/day) and no vitamin D on Day 28, the AZP-3601 dose from the previous 14 days of treatment (Part C, Main Treatment Period) was maintained and adjusted when needed during the Extension Phase. For patients who were still taking active vitamin D and/or more than 500 mg/day of oral calcium on Day 28, a progressive reduction of supplements was carried out while increasing the dose of AZP-3601. On Day 29 onwards, patients continued on the same dose of AZP-3601 as on Day 28, then individual titration of AZP-3601 started as early as Day 30 and patients had their dose of AZP-3601 adjusted at any time during the Extension Phase. Patients could have their AZP-3601 dose increased, as previously defined, with the goal of achieving or maintaining albumin-corrected serum calcium in the target range of 7.8 to 9.0 mg/dL (1.95 to 2.25 mmol/L). The AZP-3601 dose was adjusted downward at anytime as needed to maintain albumin-corrected serum calcium within the target range or for any safety concerns. […]

AVAEIQLMHQRAKWIQDARRRAFLHKLIAEIHTAEI [AZP-3601, M-PTH(1-14)/PTHrP(15-36)]
serum calcium, serum inorganic phosphorus and urinary calcium excretion [1]: restored serum calcium and serum inorganic phosphorus without increasing urinary calcium excretion | bone structure by micro-computerized tomography (TPTX rats [2]; daily sc 3.8 to 30.7 μg/kg/day): no significant differences in bone structure | BMD of whole femur and lumbar spine by DXA (TPTX rats [2]; once daily sc, AZP-3601 3.8 to 30.7 μg/kg/day, versus vehicle): no significant effects | urinary calcium excretion at the optimal dose (TPTX rats [3]; 7.7 μg/kg/day): without increasing urinary calcium excretion | optimal dose with repeated administration (TPTX rats [3]; 28 days, printed 7.7 μg/kg (1.8 nmol/kg)/day): 7.7 µg/kg/day | effect on blood phosphate levels (TPTX rats [3]; once daily sc for 28 days): reduced blood phosphate levels | effect on serum/blood calcium levels (TPTX rats [3]; once daily sc for 28 days, AZP-3601 3.8 to 30.7 μg/kg/day): dose-dependent, progressive normalization of serum calcium levels | duration of decreased serum inorganic phosphorus (hypoparathyroid mice): over 8 hours | duration of increased serum calcium (hypoparathyroid mice): up to 72 hours | time for bone markers to reach the mid-normal level ([4]; HP subjects): 4-8 weeks | time to discontinuation of active vitamin D/calcitriol after initiation of treatment ([4]; HP subjects who completed the extension period, starting dose 20 μg/day (C1) and 10 μg/day (C2)): ≤ 2 weeks | 24-hour urine calcium in subjects with hypercalciuria at baseline ([4]; HP subjects with elevated urinary calcium at baseline, 84 days): rapid, profound reduction and sustained normalization of mean 24-hour urine calcium | subjects with elevated urinary calcium at baseline in whom 24-hour urine calcium normalized ([4]; HP subjects with hypercalciuria at baseline, both cohorts): 12 out of 13 | mean serum calcium ([4]; HP subjects, 84-day study, target range 7.8 to 9.0 mg/dL): maintained mean serum calcium within the target range; also recorded: maintains mean serum calcium within target range | anabolic and catabolic bone markers (P1NP, CTx) ([4]; HP subjects, 84 days): gradual increase in both anabolic and catabolic bone markers to the mid-normal level; also recorded: gradual increase on both anabolic and catabolic bone biomarkers to the mid-normal level | discontinuation of oral calcium supplementation in Cohort 2 ([4]; HP subjects, Cohort 2, starting dose 10 μg/day): delayed and required up-titration | mean 24 h urinary calcium ([4]; HP subjects, both cohorts, 84 days): rapid, prolonged and sustained reduction and normalization; also recorded: rapid, profound, and sustained reduction and normalization of mean 24-hour urine calcium | oral calcium supplementation, sustained reduction ([4]; HP subjects, starting dose 20 μg/day and 10 μg/day, 84 days): below 500 mg/day | time to withdrawal of SOC after starting the PTH therapy ([4]; daily administration): ≤ 28 days
